In assay [1] the target is T1, GTPase-activating protein and Vps9 domain-containing protein 1 (GAPVD1) (human (endogenous in red blood cells)) (UniProt Q14C86).
T1 sequence: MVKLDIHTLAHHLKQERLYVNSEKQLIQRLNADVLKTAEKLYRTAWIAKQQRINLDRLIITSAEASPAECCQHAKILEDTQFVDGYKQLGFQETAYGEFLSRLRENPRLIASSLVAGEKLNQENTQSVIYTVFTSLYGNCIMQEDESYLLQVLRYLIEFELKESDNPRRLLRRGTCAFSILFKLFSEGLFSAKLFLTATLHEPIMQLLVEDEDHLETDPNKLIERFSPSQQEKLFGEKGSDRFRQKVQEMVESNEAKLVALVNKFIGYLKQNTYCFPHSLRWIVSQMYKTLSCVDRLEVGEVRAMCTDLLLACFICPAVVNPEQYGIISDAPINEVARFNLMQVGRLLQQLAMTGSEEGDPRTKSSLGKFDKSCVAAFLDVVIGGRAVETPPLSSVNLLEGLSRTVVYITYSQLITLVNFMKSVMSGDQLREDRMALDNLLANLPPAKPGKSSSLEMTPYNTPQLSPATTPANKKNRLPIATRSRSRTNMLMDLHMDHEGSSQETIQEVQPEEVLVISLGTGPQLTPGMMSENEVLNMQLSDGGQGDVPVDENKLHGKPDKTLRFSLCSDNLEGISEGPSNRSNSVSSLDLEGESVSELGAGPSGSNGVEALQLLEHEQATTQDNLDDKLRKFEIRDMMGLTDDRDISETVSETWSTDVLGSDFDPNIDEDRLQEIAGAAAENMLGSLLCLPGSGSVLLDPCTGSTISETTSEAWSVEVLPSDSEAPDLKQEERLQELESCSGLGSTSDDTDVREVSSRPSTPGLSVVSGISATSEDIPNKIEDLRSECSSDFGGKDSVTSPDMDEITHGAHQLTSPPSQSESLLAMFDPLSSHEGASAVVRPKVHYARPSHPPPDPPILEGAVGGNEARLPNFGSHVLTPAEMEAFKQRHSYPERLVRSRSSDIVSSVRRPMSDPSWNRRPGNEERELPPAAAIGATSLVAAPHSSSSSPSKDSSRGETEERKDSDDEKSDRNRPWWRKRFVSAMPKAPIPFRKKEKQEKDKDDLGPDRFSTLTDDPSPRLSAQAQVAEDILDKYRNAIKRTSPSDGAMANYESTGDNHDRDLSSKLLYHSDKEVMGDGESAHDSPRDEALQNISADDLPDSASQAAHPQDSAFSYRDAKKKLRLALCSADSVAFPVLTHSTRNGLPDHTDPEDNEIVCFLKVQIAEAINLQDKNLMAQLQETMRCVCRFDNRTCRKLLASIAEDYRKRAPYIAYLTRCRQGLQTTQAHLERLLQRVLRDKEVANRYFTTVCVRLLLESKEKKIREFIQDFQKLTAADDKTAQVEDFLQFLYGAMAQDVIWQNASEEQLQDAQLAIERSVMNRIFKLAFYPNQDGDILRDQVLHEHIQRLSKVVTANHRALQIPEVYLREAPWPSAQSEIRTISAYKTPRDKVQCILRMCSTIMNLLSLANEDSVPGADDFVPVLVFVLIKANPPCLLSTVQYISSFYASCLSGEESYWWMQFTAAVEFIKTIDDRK
Nature of the assay: affinity purification with mass spectrometry.

Sequences of proteins named here, by UniProt entry; tags and fusion partners are left off.
UniProt Q8IHZ9, whole entry: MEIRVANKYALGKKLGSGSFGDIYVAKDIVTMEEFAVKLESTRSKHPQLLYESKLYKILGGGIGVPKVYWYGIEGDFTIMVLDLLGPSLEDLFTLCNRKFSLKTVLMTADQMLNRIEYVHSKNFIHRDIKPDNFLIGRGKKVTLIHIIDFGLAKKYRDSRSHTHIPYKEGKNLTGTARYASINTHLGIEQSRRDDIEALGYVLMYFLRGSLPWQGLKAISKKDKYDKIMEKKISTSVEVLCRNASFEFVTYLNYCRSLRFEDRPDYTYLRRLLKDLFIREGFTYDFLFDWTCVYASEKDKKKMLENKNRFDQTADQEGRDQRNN

For assay [2], the target named is Plasmodium falciparum casein kinase 1, GFP-tagged (PfCK1-GFP) (Plasmodium falciparum (3D7)) (UniProt Q8IHZ9). Briefly: affinity purification with mass spectrometry.

These are yes or no findings as the source states them, for the method shown. Binding seen in cells or lysates may run through a third protein. Here binding means that the protein was enriched with, or labelled near, the bait; the list need not be complete.

For the molecule “P. falciparum Vacuolar protein sorting-associated protein 51 (PfVps51)”, in assay [1], the binding result is “binds”.

With “Plasmodium falciparum casein kinase 1 (PfCK1), native untagged (from UniProt Q8IHZ9 1-324) (enzyme)”, the binding result in assay [1] is reported as “binds”.

B1: GTPase-activating protein and Vps9 domain-containing protein 1 (GAPVD1) (protein, UniProt Q14C86 1-1478)
chain: MVKLDIHTLAHHLKQERLYVNSEKQLIQRLNADVLKTAEKLYRTAWIAKQQRINLDRLIITSAEASPAECCQHAKILEDTQFVDGYKQLGFQETAYGEFLSRLRENPRLIASSLVAGEKLNQENTQSVIYTVFTSLYGNCIMQEDESYLLQVLRYLIEFELKESDNPRRLLRRGTCAFSILFKLFSEGLFSAKLFLTATLHEPIMQLLVEDEDHLETDPNKLIERFSPSQQEKLFGEKGSDRFRQKVQEMVESNEAKLVALVNKFIGYLKQNTYCFPHSLRWIVSQMYKTLSCVDRLEVGEVRAMCTDLLLACFICPAVVNPEQYGIISDAPINEVARFNLMQVGRLLQQLAMTGSEEGDPRTKSSLGKFDKSCVAAFLDVVIGGRAVETPPLSSVNLLEGLSRTVVYITYSQLITLVNFMKSVMSGDQLREDRMALDNLLANLPPAKPGKSSSLEMTPYNTPQLSPATTPANKKNRLPIATRSRSRTNMLMDLHMDHEGSSQETIQEVQPEEVLVISLGTGPQLTPGMMSENEVLNMQLSDGGQGDVPVDENKLHGKPDKTLRFSLCSDNLEGISEGPSNRSNSVSSLDLEGESVSELGAGPSGSNGVEALQLLEHEQATTQDNLDDKLRKFEIRDMMGLTDDRDISETVSETWSTDVLGSDFDPNIDEDRLQEIAGAAAENMLGSLLCLPGSGSVLLDPCTGSTISETTSEAWSVEVLPSDSEAPDLKQEERLQELESCSGLGSTSDDTDVREVSSRPSTPGLSVVSGISATSEDIPNKIEDLRSECSSDFGGKDSVTSPDMDEITHGAHQLTSPPSQSESLLAMFDPLSSHEGASAVVRPKVHYARPSHPPPDPPILEGAVGGNEARLPNFGSHVLTPAEMEAFKQRHSYPERLVRSRSSDIVSSVRRPMSDPSWNRRPGNEERELPPAAAIGATSLVAAPHSSSSSPSKDSSRGETEERKDSDDEKSDRNRPWWRKRFVSAMPKAPIPFRKKEKQEKDKDDLGPDRFSTLTDDPSPRLSAQAQVAEDILDKYRNAIKRTSPSDGAMANYESTGDNHDRDLSSKLLYHSDKEVMGDGESAHDSPRDEALQNISADDLPDSASQAAHPQDSAFSYRDAKKKLRLALCSADSVAFPVLTHSTRNGLPDHTDPEDNEIVCFLKVQIAEAINLQDKNLMAQLQETMRCVCRFDNRTCRKLLASIAEDYRKRAPYIAYLTRCRQGLQTTQAHLERLLQRVLRDKEVANRYFTTVCVRLLLESKEKKIREFIQDFQKLTAADDKTAQVEDFLQFLYGAMAQDVIWQNASEEQLQDAQLAIERSVMNRIFKLAFYPNQDGDILRDQVLHEHIQRLSKVVTANHRALQIPEVYLREAPWPSAQSEIRTISAYKTPRDKVQCILRMCSTIMNLLSLANEDSVPGADDFVPVLVFVLIKANPPCLLSTVQYISSFYASCLSGEESYWWMQFTAAVEFIKTIDDRK
Take B1: in assay [2], the binding result is on record as “binds”.

B2: Sorting nexin 22 (SNX22) (protein, UniProt Q96L94 1-193)
chain: MLEVHIPSVGPEAEGPRQSPEKSHMVFRVEVLCSGRRHTVPRRYSEFHALHKRIKKLYKVPDFPSKRLPNWRTRGLEQRRQGLEAYIQGILYLNQEVPKELLEFLRLRHFPTDPKASNWGTLREFLPGDSSSQQHQRPVLSFHVDPYVCNPSPESLPNVVVNGVLQGLYSFSISPDKAQPKAACHPAPLPPMP
With B2, the binding result in assay [2] is reported as “binds”.

The values are drawn from paper doi:10.1101/617571.
